Patent publication US20060172360A1
No constants are given. Whether binding was seen depends on the method and setting. For part of these data: In cells and extracts the contact can be indirect. Some results given as binding are weak or reduced against the parent protein; the word gives no strength.

Sequences of proteins named here, by UniProt entry; tags and fusion partners are left off.
UniProt O14733: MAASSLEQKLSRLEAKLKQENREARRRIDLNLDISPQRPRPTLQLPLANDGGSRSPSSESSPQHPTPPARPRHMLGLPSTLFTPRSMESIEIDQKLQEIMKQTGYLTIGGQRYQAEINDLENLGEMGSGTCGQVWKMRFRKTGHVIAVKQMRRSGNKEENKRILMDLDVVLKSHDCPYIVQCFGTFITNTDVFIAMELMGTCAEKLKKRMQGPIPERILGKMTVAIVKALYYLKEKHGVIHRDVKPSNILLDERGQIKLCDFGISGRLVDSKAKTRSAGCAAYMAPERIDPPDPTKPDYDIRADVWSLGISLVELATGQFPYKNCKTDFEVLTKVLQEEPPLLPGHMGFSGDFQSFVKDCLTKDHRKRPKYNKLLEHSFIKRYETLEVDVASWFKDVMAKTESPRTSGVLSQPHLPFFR
UniProt O96013: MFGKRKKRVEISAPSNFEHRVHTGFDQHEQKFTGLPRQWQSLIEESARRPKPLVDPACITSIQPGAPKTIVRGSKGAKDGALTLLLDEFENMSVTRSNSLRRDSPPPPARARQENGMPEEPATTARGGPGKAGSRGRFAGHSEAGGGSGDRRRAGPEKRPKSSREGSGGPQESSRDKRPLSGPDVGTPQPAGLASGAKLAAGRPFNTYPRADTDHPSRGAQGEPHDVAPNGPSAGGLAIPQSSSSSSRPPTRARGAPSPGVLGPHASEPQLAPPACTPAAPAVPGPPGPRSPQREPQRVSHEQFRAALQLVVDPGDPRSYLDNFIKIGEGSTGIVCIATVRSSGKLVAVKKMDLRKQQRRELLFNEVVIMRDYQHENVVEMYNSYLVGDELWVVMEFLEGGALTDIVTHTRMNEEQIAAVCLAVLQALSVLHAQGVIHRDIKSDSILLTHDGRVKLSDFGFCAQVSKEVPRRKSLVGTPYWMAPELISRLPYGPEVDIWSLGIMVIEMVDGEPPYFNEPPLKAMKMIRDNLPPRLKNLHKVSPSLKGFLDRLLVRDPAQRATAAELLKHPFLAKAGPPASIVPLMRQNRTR

Experiments:
[1] = target: HA-MKK7 (human MAP kinase kinase 7 ligated with HA-tag at its N-terminus) (human) (UniProt O14733); test: co-immunoprecipitation and western blot (FIG. 3)
[2] = target: HA-MKK7 (human MAP kinase kinase 7 ligated with HA-tag at its N-terminus) (human) (UniProt O14733); test: co-expression in HEK293T cells, immunoprecipitation with anti-FLAG M2 affinity gel, western blot with anti-HA
[3] = target: HA-MKK7 (human MAP kinase kinase 7 ligated with HA-tag at its N-terminus) (human) (UniProt O14733); test: summary of co-immunoprecipitation and kinase assays

Measured: binding

FLAG-PAK4 (human p21-activated kinase 4 ligated with FLAG-tag at its N-terminus) (from UniProt O96013 1-591) (enzyme)
binds: all assays above
